For the experiment, the system named is P388 leukemia ip, CD2F1 mice, survival T/C. Put plainly: NCI In Vivo Anticancer Drug Screen. Data for tumor model P388 Leukemia (intraperitoneal) in CD2F1 (CDF1) mice. To be noted: T/C endpoint: median survival time, higher T/C = longer survival.
[1] abbreviates: dose: 0.5 mg/kg/injection, schedule: Q01DX005 (ip), vehicle: saline + alcohol.
Setting [2] is: dose: 200.0 mg/kg/injection, schedule: Q01DX009 (ip), vehicle: saline.
[3] abbreviates: dose: 120.0 mg/kg/injection, schedule: Q01DX005 (ip), vehicle: saline with Tween-80.
Setting [4] is: dose: 240.0 mg/kg/injection, schedule: Q01DX005 (ip), vehicle: saline with Tween-80.
Setting [5] is: dose: 50.0 mg/kg/injection, schedule: Q01DX009 (ip), vehicle: Klucel (hydroxypropylcellulose) (HPC).
The mark [6] stands for this setting: dose: 100.0 mg/kg/injection, schedule: Q01DX009 (ip), vehicle: Klucel (hydroxypropylcellulose) (HPC).
Where [7] appears, read: dose: 200.0 mg/kg/injection, schedule: Q01DX009 (ip), vehicle: Klucel (hydroxypropylcellulose) (HPC).
The mark [8] stands for this setting: dose: 200.0 mg/kg/injection, schedule: Q01DX005 (ip), vehicle: Klucel (hydroxypropylcellulose) (HPC).
[9] abbreviates: dose: 100.0 mg/kg/injection, schedule: Q01DX009 (ip), vehicle: saline with Tween-80.

The list shows only some results of the screen, not a fair sample: it is rich in T/C values a quarter to a half above the control, in often repeated tests (any T/C) and in doses without a T/C. Other doses and runs of a compound stand elsewhere. T/C gives the treated animals as a percentage of the vehicle group. Some entries give survivors of the animals treated and no T/C: the source files T/C as zero there, which appears to mark a toxic dose or a test without result, not a measured value. Some doses without a T/C left all or most animals alive at the check, yet need not have been tolerated: survival well below the control is almost never listed, so the zero probably covers shortened survival too. Survivors were counted at the toxicity check, usually on the fifth day, unless a day is given; later deaths do not show. Schedule codes are those of the source, taken here to give the interval after Q, in days (D) or hours (H), and the number of doses after X. Some entries were tested several times; the values are given in rising order. Some structures stand for samples that the source files as different forms (salt, stereo form or complex); doses refer to the form tested. Some schedule codes hold Z or #, which are not explained here. Where survival is the endpoint, this PubChem deposit counts one and a half times the control or more as active, and values a quarter to a half above the control carry no call in these data; other NCI protocols may use other cut-offs.

26 compounds from PubChem BioAssay AID330 (DTP/NCI, 2004) can be followed below.

Consider `Cc1ccc(S(=O)(=O)OCCN(CCOS(=O)(=O)c2ccc(C)cc2)c2ccc(N=O)cc2)cc1`, for which the T/C was 127 % of control (dose: 66.0 mg/kg/injection, schedule: Q04DX003 (ip), vehicle: saline sonified) and 140 % of control (dose: 150.0 mg/kg/injection, schedule: Q04DX003 (ip), vehicle: saline sonified).

On to `O=C(NN1C(=O)CSC1c1ccc(Cl)cc1Cl)c1ccncc1` (stereo not drawn), for which, for the setting “dose: 60.0 mg/kg/injection, schedule: Q01DX005 (ip), vehicle: saline with Tween-80”, the survivor count is given as 6 of 6.

Take `COC(=O)C12OCC34C(CC5C(C)C6=CC(=O)OC6=CC5(C)C3C(O)C1O)OC(=O)C(OC(C)=O)C24` (stereo not drawn): the T/C reads like this: (dose: 0.06 mg/kg/injection, schedule: Q01DX005 (ip), vehicle: saline + alcohol) 128 % of control; under setting [1], 140 % of control; (dose: 73.5 mg/kg/injection, schedule: Q01DX005 (ip), vehicle: Klucel (hydroxypropylcellulose) (HPC)) 127 % of control. Also, the survivor count is, setting by setting: (dose: 0.13 mg/kg/injection, schedule: Q01DX005 (ip), vehicle: saline + alcohol) 3 of 5; (dose: 0.25 mg/kg/injection, schedule: Q01DX005 (ip), vehicle: saline + alcohol) 0 of 5; under setting [1], 0 of 5; (dose: 1.0 mg/kg/injection, schedule: Q01DX005 (ip), vehicle: saline + alcohol) 0 of 5 and 2 of 5; (dose: 2.0 mg/kg/injection, schedule: Q01DX005 (ip), vehicle: saline + alcohol) 1 of 5; (dose: 4.0 mg/kg/injection, schedule: Q01DX005 (ip), vehicle: saline + alcohol) 0 of 5. Moreover, where the note is “dose: 8.0 mg/kg/injection, schedule: Q01DX005 (ip), vehicle: saline + alcohol”, the survivor count is listed as 0 of 5.

For the compound `CC(CN(C)C)C(=O)c1ccccc1` (stereo not drawn), under setting [2], the survivor count was 1 of 6.

On to `Cc1nnc2c3nccnc3c(Cl)nn12`, for which the survivor count runs as follows: under setting [3], 4 of 6; under setting [4], 0 of 6.

For `N#CN=[N+]([O-])c1cccc(Cl)c1`, where the note is “dose: 50.0 mg/kg/injection, schedule: Q04DX003 (ip), vehicle: Klucel (hydroxypropylcellulose) (HPC)”, the survivor count is recorded as 2 of 6.

On to `CN(C)CCCN1c2ccccc2Sc2ccccc21`, for which the survivor count reads like this: (dose: 75.0 mg/kg/injection, schedule: Q01DX009 (ip), vehicle: saline with Tween-80) 3 of 6; (dose: 150.0 mg/kg/injection, schedule: Q01DX009 (ip), vehicle: saline with Tween-80) 3 of 6. Also, the T/C (dose: 75.0 mg/kg/injection, schedule: Q01DX009 (ip), vehicle: saline) was 127 % of control.

For the compound `CC(C)N=C(Nc1ccccc1)c1ccccc1`, the survivor count by setting is: (dose: 50.0 mg/kg/injection, schedule: Q01DX009 (ip), vehicle: saline with Tween-80) 6 of 6; (dose: 100.0 mg/kg/injection, schedule: Q01DX009 (ip), vehicle: saline + Tween-80 + alcohol) 0 of 6; (dose: 200.0 mg/kg/injection, schedule: Q01DX009 (ip), vehicle: saline + Tween-80 + alcohol) 0 of 6.

On to `O=C1C=CC(=O)N1C1CCCCC1`, for which the survivor count under setting [5] was 0 of 6.

For the compound `COc1cccc2c(NCCCCCO[N+](=O)[O-])cc[n+](C)c12`, the survivor count is listed as 5 of 6 under setting [5], 2 of 6 under setting [6] and 0 of 6 under setting [7].

Consider `CCC[CH2][Sn]([CH2]CCC)([n]1ccnc1)[n]1ccnc1`, for which the survivor count by setting is: (dose: 12.5 mg/kg/injection, schedule: Q01DX005 (ip), vehicle: Klucel (hydroxypropylcellulose) (HPC)) 0 of 6; (dose: 50.0 mg/kg/injection, schedule: Q01DX005 (ip), vehicle: Klucel (hydroxypropylcellulose) (HPC)) 0 of 6; (dose: 100.0 mg/kg/injection, schedule: Q01DX005 (ip), vehicle: Klucel (hydroxypropylcellulose) (HPC)) 0 of 6; under setting [8], 0 of 6.

For `CNC(=O)OCc1c(COC(=O)NC)c(C)n(-c2ccc(F)cc2)c1C`, the T/C is, setting by setting: (dose: 12.5 mg/kg/injection, schedule: Q01DX009 (ip), vehicle: saline) 127 and 142 % of control; (dose: 25.0 mg/kg/injection, schedule: Q01DX009 (ip), vehicle: saline) 145 % of control; (dose: 50.0 mg/kg/injection, schedule: Q01DX009 (ip), vehicle: saline) 133 and 145 % of control.

As to `O=C(c1cccs1)C1SC(C(=O)c2cccs2)C2(O)c3cccc4cccc(c34)C12O` (stereo not drawn), the survivor count by setting is: (dose: 15.0 mg/kg/injection, schedule: Q01DX009 (ip), vehicle: Klucel (hydroxypropylcellulose) (HPC)) 6 of 6; (dose: 30.0 mg/kg/injection, schedule: Q01DX009 (ip), vehicle: Klucel (hydroxypropylcellulose) (HPC)) 6 of 6.

`CC(N)C1CCC2C3CC=C4CC(N)CCC4(C)C3CCC12C` (stereo not drawn): under “dose: 40.0 mg/kg/injection, schedule: Q01DX009 (ip), vehicle: saline with Tween-80”, the survivor count is on record as 3 of 6.

In the case of `O=[N+]([O-])c1ccc2c(c1)[S@@](=O)c1nc([N+](=O)[O-])cnc1N2`, under setting [8], the survivor count is 0 of 6.

As to `CCCCn1c2nc(=O)n(C)c(=O)c-2cc2ccccc21`, under setting [9], the T/C is 132 % of control and the survivor count was 6 of 6.

For `CCCCCCCCN1CSC(=S)N(c2ccc3[nH]c(=S)sc3c2)C1`, the survivor count is reported as 6 of 6 under setting [5], 2 of 6 under setting [6] and 0 of 6 under setting [7].

Consider `CCOC(=O)c1ccc(N(CC(O)CN)S(=O)(=O)c2ccc(C)cc2)cc1` (stereo not drawn), for which the survivor count is 3 of 6 under setting [3] and 0 of 6 under setting [4].

For the compound `c1cc(-c2cc3cc(C4=NCCN4)ccc3s2)ccc1C1=NCCN1`, the survivor count reads like this: (dose: 100.0 mg/kg/injection, schedule: Q04DX003 (ip), vehicle: saline) 2 of 6; (dose: 200.0 mg/kg/injection, schedule: Q04DX003 (ip), vehicle: saline) 1 of 6; (dose: 400.0 mg/kg/injection, schedule: Q04DX003 (ip), vehicle: saline) 0 of 6.

Consider `c1ccc2c(NCCCCCCCCCCCCNc3c4ccccc4nc4ccccc34)c3ccccc3nc2c1`, for which the survivor count was 1 of 6 and 2 of 6 (dose: 10.0 mg/kg/injection, schedule: Q## X009 (ip), vehicle: lactic acid); 0 of 5 (dose: 20.0 mg/kg/injection, schedule: Q## X009 (ip), vehicle: lactic acid).

In the case of `CN(C)CCC(=O)c1ccc(Cl)c(Cl)c1`, the survivor count under setting [7] is listed as 1 of 6.

Consider `C1OC1CN1CCN(CC2CO2)CC1` (stereo not drawn), for which the T/C is 125 % of control (dose: 8.0 mg/kg/injection, schedule: Q01DX009 (ip), vehicle: saline) and 145 % of control (dose: 16.0 mg/kg/injection, schedule: Q01DX009 (ip), vehicle: saline). Further, the survivor count was 5 of 6 and 6 of 6 (dose: 64.0 mg/kg/injection, schedule: Q01DX009 (ip), vehicle: saline); 5 of 6 (dose: 128.0 mg/kg/injection, schedule: Q01DX009 (ip), vehicle: saline).

As for `O=c1[nH]nc(-c2ccc(Cl)cc2)c2cc(Cl)c(Cl)cc12`, the survivor count (dose: 25.0 mg/kg/injection, schedule: Q04DX002 (ip), vehicle: distilled water + Tween-80) is given as 6 of 6.

Take `COc1ccc2c(C)cc(N/N=C(\c3ccccc3)c3ccccn3)nc2c1`: the survivor count runs as follows: (dose: 12.5 mg/kg/injection, schedule: Q01DX005 (ip), vehicle: saline with Tween-80) 6 of 6; (dose: 25.0 mg/kg/injection, schedule: Q01DX005 (ip), vehicle: saline with Tween-80) 6 of 6; (dose: 50.0 mg/kg/injection, schedule: Q01DX005 (ip), vehicle: saline with Tween-80) 6 of 6.

For `Cc1ccc(S(=O)(=O)N(O)c2ccc(C)cc2C)cc1`, the survivor count (dose: 200.0 mg/kg/injection, schedule: Q01DX005 (ip), vehicle: saline with Tween-80) is 5 of 5.

Take `CCCN1CCc2cccc3c2C1Cc1ccc(O)c(O)c1-3` (stereo not drawn): the T/C is 127 % of control under setting [9] and 126 % of control (dose: 100.0 mg/kg/injection, schedule: Q01DX009 (ip), vehicle: saline). Moreover, under setting [2], the survivor count is given as 3 of 3.
